In this test the target is T1, Hxt7-NCitr (Hxt7 fused to the N-terminal part of Citrine) (S. cerevisiae) (UniProt P39004).
T1 sequence: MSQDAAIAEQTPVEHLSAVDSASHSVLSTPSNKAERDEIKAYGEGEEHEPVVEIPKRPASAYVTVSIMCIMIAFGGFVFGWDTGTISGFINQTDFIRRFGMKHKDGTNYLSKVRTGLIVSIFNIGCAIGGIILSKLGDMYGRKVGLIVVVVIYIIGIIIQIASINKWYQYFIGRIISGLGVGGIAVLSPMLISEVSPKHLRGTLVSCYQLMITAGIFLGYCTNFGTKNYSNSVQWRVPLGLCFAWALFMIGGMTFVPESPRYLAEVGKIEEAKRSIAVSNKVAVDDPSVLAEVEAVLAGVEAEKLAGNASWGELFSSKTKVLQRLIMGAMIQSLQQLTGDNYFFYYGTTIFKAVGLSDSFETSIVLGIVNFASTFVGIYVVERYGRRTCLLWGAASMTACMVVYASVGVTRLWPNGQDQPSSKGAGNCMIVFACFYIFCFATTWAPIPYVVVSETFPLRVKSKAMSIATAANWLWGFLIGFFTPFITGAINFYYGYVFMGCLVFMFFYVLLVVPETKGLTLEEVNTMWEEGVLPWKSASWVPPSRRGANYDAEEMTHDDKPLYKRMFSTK
Nature of the test: split reporter; BiFC with split Citrine halves (NCitr 1-154, CCitr 155-236) in living yeast cells, confocal fluorescence microscopy; cells (pre)grown on YP with 325 mM glycerol and 430 mM ethanol.

We go through 1 substance from publication PMC11374660, “The novel family of Warbicin® compounds inhibits glucose uptake both in yeast and human cells and restrains cancer cell proliferation” (Frontiers in Oncology, 2024).

No constants are given. Whether binding was seen depends on the method and setting. Binding seen in cells or lysates may run through a third protein. Sequences can lack the tags named with a protein.

“C-terminal part of Citrine expressed freely in the cytosol (CCitr) (domain or fragment)”: the binding result is listed as “no binding”.
